Earlier results in patent US20060252733A1, “Betulin, betulin derivatives, betulinic acid and betulinic acid derivatives as novel therapeutics in the treatment of disease of lipid and/or glucose metabolism” (Novelix Pharmaceuticals, Inc., priority 2005, published 2006).
At least one compound was matched to its structure with a doubt left.

System: acyl-CoA:cholesterol acyltransferase
Conditions: Lee et al., 2006; cited from earlier work

C=C(C)[C@@H]1CC[C@]2(C(=O)O)CC[C@]3(C)[C@H](CC[C@@H]4[C@@]5(C)CC[C@H](O)C(C)(C)[C@@H]5CC[C@]43C)[C@@H]12 [betulinic acid, 3β-Hydroxy-20(29)-lupaene-28-oic acid]
inhibition of acyl-CoA:cholesterol acyltransferase: inhibit acyl-CoA:cholesterol acyltransferase
